Our source for the Kd values is patent publication US20190117791A1 (NAVIGO PROTEINS, published 2019).

The Kd is the constant that tells how readily two partners part at equilibrium.

Test [1] deals with T1, hEGFR-Fc (human, UniProt P00533 25-645).
T1 construct: Captured on rProtein A immobilised on a CM5 chip; not shown: Fc part
Kind of test: method not given; Example 7 lists SPR on hEGFR-Fc for this Affilin.

In test [2] the target is T1, hEGFR-Fc. Put plainly: SPR (Biacore 3000), hEGFR-Fc captured on rProtein A, fusion protein as analyte, Langmuir 1:1. For orientation: In SPR one partner is held on a chip, and binding of the other changes the refractive index at the surface.

B1: EGFR-specific Affilin-139819 (designed binder)
chain: MQIFVKTLTYNPMRYGKTITLEVEPSDTIENVKAKIQDKEGIPPDQQRLIWAGKQLEDGRTLSDYNIRNPDILHLVLRLRAA
notes: Ubiquitin mutein used as targeting domain of the EGFR-specific fusion proteins
B1 returned a Kd with hEGFR-Fc [1] of around 20 nM.

B2: fusion protein 143276 (designed binder)
chain: MQIFVKTLTYNPMRYGKTITLEVEPSDTIENVKAKIQDKEGIPPDQQRLIWAGKQLEDGRTLSDYNIRNPDILHLVLRLRAASAPAPSAPAASAPPAPAAPAAPAAPASAPAPAPAPAASPSPAAPAPSPACPAPASPASAPSAPASAPPAAPSAACSPAPSAPAPAASPAAAPASAAPASA
notes: EGFR-specific Affilin fused to 2 Ala/Pro/Ser linkers, each with a C-terminal Cys, and a cap; Unlabelled form; also called CID143276; Affilin-(APS-Cys)2-cap
On to B2, for which the Kd with hEGFR-Fc [2] is 26 nM. In other words, the double-digit nanomolar range.
